The experiment has as its target T1, ZBTB12, BTB domain-containing zinc finger protein (not stated (human or mouse cDNA cloned)) (UniProt Q9Y330).
T1 sequence: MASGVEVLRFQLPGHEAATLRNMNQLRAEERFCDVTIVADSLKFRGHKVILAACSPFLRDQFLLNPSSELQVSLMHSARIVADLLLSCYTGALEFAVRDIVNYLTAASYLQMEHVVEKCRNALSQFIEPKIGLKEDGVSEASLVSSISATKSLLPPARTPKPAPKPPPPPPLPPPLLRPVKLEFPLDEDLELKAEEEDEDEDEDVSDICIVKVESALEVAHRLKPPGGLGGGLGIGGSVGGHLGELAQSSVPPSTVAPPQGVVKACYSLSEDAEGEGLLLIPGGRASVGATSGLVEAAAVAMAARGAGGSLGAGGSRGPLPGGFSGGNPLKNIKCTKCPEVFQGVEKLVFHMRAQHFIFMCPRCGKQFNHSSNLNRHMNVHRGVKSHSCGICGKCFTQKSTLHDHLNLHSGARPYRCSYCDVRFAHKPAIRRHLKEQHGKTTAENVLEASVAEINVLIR
Put plainly: co-IP; cell lysates in IP-lysis buffer (50 mM Tris-HCl pH7.5, 150 mM NaCl, 0.5% TX-100, 1 mM EDTA, protease inhibitors), 4 °C; immunoprecipitation with anti-HA magnetic beads; Western blot; cell line not stated.

Protein sequences, listed by entry. Tags and fused reporters are not part of them.
UniProt Q13547: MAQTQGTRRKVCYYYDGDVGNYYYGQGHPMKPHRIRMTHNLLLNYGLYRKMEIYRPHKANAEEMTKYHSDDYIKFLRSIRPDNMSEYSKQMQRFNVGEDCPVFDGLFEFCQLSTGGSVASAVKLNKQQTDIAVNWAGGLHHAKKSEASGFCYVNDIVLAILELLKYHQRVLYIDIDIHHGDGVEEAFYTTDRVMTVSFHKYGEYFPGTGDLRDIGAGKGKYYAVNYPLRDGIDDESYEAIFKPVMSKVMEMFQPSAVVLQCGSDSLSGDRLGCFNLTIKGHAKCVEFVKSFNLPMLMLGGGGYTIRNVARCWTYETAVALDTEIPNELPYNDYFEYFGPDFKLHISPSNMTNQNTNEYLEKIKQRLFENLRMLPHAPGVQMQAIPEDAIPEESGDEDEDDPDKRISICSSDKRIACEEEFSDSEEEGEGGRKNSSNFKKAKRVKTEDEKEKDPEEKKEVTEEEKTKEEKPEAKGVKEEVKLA
UniProt Q13263: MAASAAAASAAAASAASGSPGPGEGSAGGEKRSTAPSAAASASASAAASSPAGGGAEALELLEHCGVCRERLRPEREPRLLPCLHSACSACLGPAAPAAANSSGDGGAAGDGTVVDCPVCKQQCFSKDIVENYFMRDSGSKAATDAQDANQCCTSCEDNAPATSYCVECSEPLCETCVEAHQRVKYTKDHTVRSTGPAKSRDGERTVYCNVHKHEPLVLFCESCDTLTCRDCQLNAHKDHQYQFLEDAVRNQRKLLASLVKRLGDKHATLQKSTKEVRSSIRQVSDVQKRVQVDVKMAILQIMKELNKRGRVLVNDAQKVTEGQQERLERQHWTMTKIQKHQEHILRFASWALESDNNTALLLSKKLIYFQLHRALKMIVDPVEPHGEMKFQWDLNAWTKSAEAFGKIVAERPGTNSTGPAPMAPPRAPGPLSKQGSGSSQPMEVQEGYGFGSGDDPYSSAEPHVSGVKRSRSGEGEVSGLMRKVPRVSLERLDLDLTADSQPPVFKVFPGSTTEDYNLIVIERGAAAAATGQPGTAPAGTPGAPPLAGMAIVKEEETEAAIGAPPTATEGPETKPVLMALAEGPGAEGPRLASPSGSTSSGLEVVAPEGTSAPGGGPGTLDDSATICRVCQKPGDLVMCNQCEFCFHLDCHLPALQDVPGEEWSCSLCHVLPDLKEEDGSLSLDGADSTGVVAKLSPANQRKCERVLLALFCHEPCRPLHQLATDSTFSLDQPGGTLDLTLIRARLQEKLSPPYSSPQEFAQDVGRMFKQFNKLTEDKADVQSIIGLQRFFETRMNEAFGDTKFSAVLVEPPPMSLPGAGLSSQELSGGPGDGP

These are yes or no findings as the source states them, for the method shown. In cells and extracts the contact can be indirect. Some binding calls cover weakened binding; strength is not graded here.

For the substance HDAC1 (from UniProt Q13547 1-482), the binding result is listed as “binds”.

For the substance KAP1 (from UniProt Q13263 1-835), the binding entry is on record as “no binding”.

(Values after publication PMC9911396.)
